From publication PMC4368859 (International Journal of Neuropsychopharmacology, 2014) come the findings set out here.

The subject of assay [1] is cocaine transporter in hCMEC/D3 cells. Briefly: trans-stimulation of [^3H]-cocaine exit from hCMEC/D3 cells. Particulars: 10 µM unlabeled compound in KH buffer after 5 minutes loading; vs control.
Assay [2] relates to [^3H]-cocaine uptake in hCMEC/D3 cells. It is filed as cell-based, human.

`CN(C)CCOC(c1ccccc1)c1ccccc1` [Diphenhydramine]: the “trans-stimulation of [^3H]-cocaine exit (trans-efflux zero)” value in assay [1] is “strongly stimulated”. Further, the “Relative uptake of [^3H]-cocaine” value in assay [2] was 8.3±0.4 %.
